Literature values as cited in patent publication US6486182B1, “Mutual prodrugs of amlodipine and atorvastatin” (Pfizer Inc, priority 1999, dated 2002).
At least one structure is not confirmed: it was looked up by name or label, or the drawing left a doubt.

System: calcium channel
Conditions: see PCT/EP94/02697

## CCOC(=O)C1=C(COCCN)NC(C)=C(C(=O)OC)[C@@H]1c1ccccc1Cl [S(−) isomer, Amlodipine]
  calcium channel blocking activity: substantially confined to the S(−) isomer
